The source of these data is patent US20100254928A1, “NOVEL COMPOSITION CONTAINING OZONIZED SURFACTANT” (priority 2007, published 2010).

Series [1] relates to standard activated sludge. Kind of series: Biodegradability test (biochemical oxygen consumption). As to conditions: activated sludge 30 mg/L, 25±1° C.
The nature of series [2]: Detergency against dirt on the floor. On the set-up: key: Excellent: Obviously superior to POE (20 EO) lauryl ether; Good: Comparable to POE (20 EO) lauryl ether; Fair: Slightly inferior to POE (20 EO) lauryl ether; Poor: Obviously inferior to POE (20 EO) lauryl ether. Particulars: 0.2% aqueous solution, pH 7.2, room temperature, 3 panel members averaged.

Consider `Nc1ccccc1` [aniline, reference compound], for which, in series [1], the “Degradation, Day 7” value was 50%; the “Degradation, Day 14” value was determined as 68%; the “Degradation, Day 15” value is recorded as 69%; the “Degradation, Day 28” value was 69%. In addition, in series [1] (300 mL), the “BOD, Day 7” value turned out to be 54.1 mg; the “BOD, Day 14” value came to 73.4 mg; the “BOD, Day 15” value came out at 73.6 mg; the “BOD, Day 28” value was found to be 74.3 mg.

Consider “decaglycerin monooleate [Decaglycerol monooleate, reference compound]”, for which the “Detergency against dirt on the floor (Visually observed)” value in series [2] is recorded as “Fair”.
